# Test results as given in patent US20120108624A1, “TREATMENT OF DYSKINESIA RELATED DISORDERS” (priority 2009, published 2012).
# The chains behind the UniProt entries cited, without tags or fusion partners.
# UniProt P21728, whole entry: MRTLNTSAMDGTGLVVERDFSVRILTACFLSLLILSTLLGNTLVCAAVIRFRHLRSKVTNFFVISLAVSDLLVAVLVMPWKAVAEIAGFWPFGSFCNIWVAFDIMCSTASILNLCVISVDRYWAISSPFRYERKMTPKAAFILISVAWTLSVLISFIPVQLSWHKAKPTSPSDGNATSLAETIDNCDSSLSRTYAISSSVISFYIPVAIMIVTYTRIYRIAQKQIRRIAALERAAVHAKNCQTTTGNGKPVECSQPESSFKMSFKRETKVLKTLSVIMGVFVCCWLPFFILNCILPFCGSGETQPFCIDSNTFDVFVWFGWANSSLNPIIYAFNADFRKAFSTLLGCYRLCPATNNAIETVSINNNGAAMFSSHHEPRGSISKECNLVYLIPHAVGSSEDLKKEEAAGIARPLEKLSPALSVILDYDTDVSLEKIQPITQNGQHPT
# UniProt P14416, whole entry: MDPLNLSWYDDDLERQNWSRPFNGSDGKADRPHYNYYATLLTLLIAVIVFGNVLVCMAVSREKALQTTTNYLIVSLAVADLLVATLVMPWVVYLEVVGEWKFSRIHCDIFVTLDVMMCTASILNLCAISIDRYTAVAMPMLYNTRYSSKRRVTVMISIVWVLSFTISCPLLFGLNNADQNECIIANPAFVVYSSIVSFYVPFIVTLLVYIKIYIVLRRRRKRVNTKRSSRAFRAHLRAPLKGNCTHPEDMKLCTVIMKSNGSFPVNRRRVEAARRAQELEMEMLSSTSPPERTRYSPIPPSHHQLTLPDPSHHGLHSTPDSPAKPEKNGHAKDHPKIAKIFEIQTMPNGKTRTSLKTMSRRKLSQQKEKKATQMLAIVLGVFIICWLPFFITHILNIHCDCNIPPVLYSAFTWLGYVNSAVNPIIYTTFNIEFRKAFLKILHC
# UniProt P21918, whole entry: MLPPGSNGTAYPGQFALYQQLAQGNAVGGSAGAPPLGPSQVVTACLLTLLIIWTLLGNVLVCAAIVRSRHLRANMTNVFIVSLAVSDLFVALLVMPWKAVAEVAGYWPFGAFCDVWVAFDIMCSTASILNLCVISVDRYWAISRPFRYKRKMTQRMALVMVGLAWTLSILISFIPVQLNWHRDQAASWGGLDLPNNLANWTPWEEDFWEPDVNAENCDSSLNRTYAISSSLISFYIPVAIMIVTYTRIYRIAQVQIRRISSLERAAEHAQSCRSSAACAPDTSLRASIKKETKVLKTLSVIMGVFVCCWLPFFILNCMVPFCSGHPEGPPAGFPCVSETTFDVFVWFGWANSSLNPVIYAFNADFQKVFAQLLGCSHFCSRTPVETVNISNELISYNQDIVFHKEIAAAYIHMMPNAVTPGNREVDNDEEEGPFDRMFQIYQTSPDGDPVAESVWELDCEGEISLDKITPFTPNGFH
# Entries after “also recorded” stand apart in the source; their conditions may differ. Where a name gives a salt, the structure may show the parent alone. At least one compound was matched to its structure with a doubt left.
# Columns and labels:
# [1] = tested on: Sprague Dawley rats with unilateral 6-OHDA lesions; experiment: Induction of dyskinesia model with naive 6-OHDA rats (AIMS); type: in vivo, rat
# Protocol: Twenty male Sprague Dawley rats with unilateral 6-OHDA lesions were used to test induction of dyskinesia by compound 10 (administered subcutaneously; n=7; group 1) compared to L-DOPA/benserazide (6 mg/kg / 15 mg/kg subcutaneously; n=7; group 2) and apomorphine (1 mg/kg subcutaneously; n=6; group 3). Benserazide is a DOPA decarboxylase inhibitor which is unable to cross the blood-brain barrier; it is used to prevent metabolism of L-DOPA to dopamine outside the brain. Three weeks after 6-OHDA surgery, the animals were tested for their rotation response induced by 2.5 mg/kg amphetamine, which induces ipsilateral circling (amphetamine increases the level dopamine in the brain via the intact neurons on the unlesioned side causing the animals to rotate in the opposite direction as compared to their response to direct agonists such as L-DOPA and apomorphine that act predominantly on the lesioned side of the brain). […] Rats where then randomly allocated to the three treatment groups balancing the groups for the animals' rotation response on amphetamine.
# Rats received drug for 14 consecutive days and were scored on days 1, 2, 3, 4, 5, 8, 10 and 12. […] Following this experiment all rats were given subcutaneous injections of compound 10 from day 15-19 in order to determine how Example I influenced the severity of dyskinesia seen in the apomorphine and L-DOPA groups. […]
# [2] = tested on: rats with L-DOPA induced dyskinesias; experiment: Dyskinesia rat model: reversal of L-DOPA induced dyskinesias with pramipexole or compound 10; type: in vivo; conditions: daily treatment for 10 days
# [3] = tested on: rats with unilateral 6-OHDA lesions; experiment: Dyskinesia profile in rats with unilateral 6-OHDA lesions (summary statements); type: in vivo, rat
# [4] = biological target: T1, human recombinant D1 receptor (Homo sapiens, UniProt P21728); experiment: D1 cAMP assay; type: cell-based; conditions: CHO cells stably expressing the human recombinant D1 receptor; hydrobromide
# T1 construct: expressed in transfected cells
# human D2 receptor = biological target: T2, human D2 receptor (Homo sapiens, UniProt P14416); experiment: D2 cAMP assay; type: cell-based; conditions: CHO cells transfected with the human D2 receptor; hydrobromide
# T2 construct: expressed in transfected cells; host or cells: CHO cells
# [5] = tested on: mouse model of severe dopamine depletion; experiment: Superiority model (MPTP mice treated with AMPT, motility); type: in vivo; conditions: for reversal of motility deficits / restoration of locomotion: MPTP mice, AMPT 250 mg/kg s.c., last 1 hour of recorded data
# MPTP treated marmosets = experiment: Anti-Parkinsonian effects in MPTP-treated common marmosets; type: in vivo, common marmoset
# Protocol: The experiments were conducted using 6 MPTP treated marmosets (2.0 mg/kg daily for up to 5 consecutive days dissolved in sterile 0.9% saline solution). All the animals had previously been treated with L-DOPA (12.5 mg/kg p.o., plus carbidopa 12.5 mg/kg p.o.) administered daily for up to 30 days in order to induce dyskinesia. […] Domperidone was administered 60 min before any of the test compounds. Domperidone is an anti-dopaminergic drug that suppresses nausea and vomiting. Locomotor Activity was assessed using test cages that are comprised of 8 photo-electric switches comprised of 8 infra-red beams which are strategically placed in the cage and interruption of a beam is recorded as one count. […] The assessment of motor disability was performed by a trained observer blinded to the treatment.
# The experiments were conducted using 6 MPTP treated marmosets (2.0 mg/kg daily for up to 5 consecutive days dissolved in sterile 0.9% saline solution). All the animals had previously been treated with L-DOPA (12.5 mg/kg p.o., plus carbidopa 12.5 mg/kg p.o.) administered daily for up to 30 days in order to induce dyskinesia. […] Locomotor Activity was assessed using test cages that are comprised of 8 photo-electric switches comprised of 8 infra-red beams which are strategically placed in the cage and interruption of a beam is recorded as one count. […]
# hD5 = biological target: T3, hD5 (Homo sapiens, UniProt P21918); experiment: D5 assay (intracellular Ca2+ release, FLIPR); type: cell-based; conditions: hD5-transfected CHO-Ga16 cells
# T3 construct: expressed in transfected cells; host or cells: CHO-Ga16 cells
# [6] = rats with unilateral 6-OHDA lesions
SMILES,"reversal of the dyskinesias induced by L-DOPA and apomorphine ([1]; all rats given compound 10 s.c. day 15-19, scored day 19)",change of dyskinesia in group 1 on continued treatment ([1]; day 19 compared with score after 12 days),"amount of dyskinesia (AIMS) compared with other groups ([2]; after 7 days L-DOPA/Benserazide, s.c.)",profile in reversing dyskinesias induced by L-DOPA [2],reversal of dyskinesias induced by L-DOPA/benserazide and apomorphine ([3]; rats lesioned with 6-OHDA),"induction of dyskinesias compared with L-DOPA and apomorphine [3, 6]","reduction of L-DOPA induced dyskinesias compared with D2 agonists (pramipexole) [3, 6]",activity at D1 receptor mediated cAMP formation [4],activity at D2 receptor mediated inhibition of cAMP formation (human D2 receptor),direct comparison with apomorphine and pramipexole ([5]; MPTP mice treated with AMPT),dose response experiment: reversal of hypomotility deficits ([5]; MPTP mice treated with AMPT),reversal of motility deficits / restoration of locomotion [5],locomotor activity and motor disability (MPTP treated marmosets; dosed p.o.),locomotor activity and motor disability (MPTP treated marmosets; dosed subcutaneously),activity at D5 (intracellular Ca2+ release) (hD5)
"CCCN1CCC[C@@H]2Cc3c(ccc(O)c3O)C[C@H]21 [Compound 10, (4aR,10aR)-1-Propyl-1,2,3,4,4a,5,10,10a-octahydro-benzo[g]quinoline-6,7-diol hydrobromide]",partial reversal,did not cause an increase in dyskinesia,significantly fewer dyskinesias than both the pramipexole group and the L-DOPA/Benserazide group,superior profile over pramipexole,reversed dyskinesias,induce less dyskinesias than L-DOPA and apomorphine,reduce L-DOPA induced dyskinesias more effectively than D2 agonists,potent agonist; also recorded: D1 agonist,potent agonist; also recorded: D2 agonist,superior to pramipexole,dose-dependent trend for reversing the hypomotility deficits,able to restore locomotion,dose-related increases in locomotor activity and reversal of motor disability,dose-related increases in locomotor activity and reversal of motor disability,D5 agonist
CC(C)C[C@H]1C(=O)N2CCC[C@H]2[C@]2(O)O[C@](NC(=O)[C@@H]3C=C4c5cccc6[nH]c(Br)c(c56)C[C@H]4N(C)C3)(C(C)C)C(=O)N12 [bromocriptine],–,–,–,–,–,–,–,–,–,–,–,did not restore the locomotion,–,–,–
